Test results taken from US6428529B1, “Epidural administration of therapeutic compounds with sustained rate of release” (SkyePharma Inc., priority 1995, dated 2002).

Assay: Pharmacokinetics: morphine concentrations in CSF and serum by RIA after single epidural dose

CN1CC[C@]23c4c5ccc(O)c4O[C@H]2[C@@H](O)C=C[C@H]3[C@H]1C5.O=S(=O)(O)O [MS, morphine sulfate]
Cmax (Sprague-Dawley, rat, serum, 250 ug): 1460 ± 97 ng/mL | AUC, CSF (rats, 250-μg epidural injection, CSF): 432 ng·days/mL | Cmax, CSF (rats, 250-μg epidural injection, cisternal CSF): 6060 ± 3590 ng/mL | AUC, Serum (rats, 250-μg epidural injection, serum): 58 ng·days/mL
